This note sets out measurements from publication PMC6223059.

Protein sequences, listed by entry. Tags and fused reporters are not part of them.
UniProt Q921F2: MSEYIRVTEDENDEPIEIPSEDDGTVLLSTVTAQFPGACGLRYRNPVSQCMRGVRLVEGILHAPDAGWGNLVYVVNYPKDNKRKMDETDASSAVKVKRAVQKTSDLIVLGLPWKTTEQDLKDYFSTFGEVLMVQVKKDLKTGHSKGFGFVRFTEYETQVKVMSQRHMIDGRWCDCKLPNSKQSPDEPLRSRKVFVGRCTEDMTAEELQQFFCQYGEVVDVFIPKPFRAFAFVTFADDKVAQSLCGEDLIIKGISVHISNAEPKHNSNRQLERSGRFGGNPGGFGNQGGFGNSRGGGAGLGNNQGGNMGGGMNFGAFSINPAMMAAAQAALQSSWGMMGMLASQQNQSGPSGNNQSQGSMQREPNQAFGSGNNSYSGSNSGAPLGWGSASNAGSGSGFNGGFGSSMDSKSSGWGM

These are yes or no findings as the source states them, for the method shown. Binding seen in cells or lysates may run through a third protein. These calls come from enrichment with a bait or labelling near it, and not all partners need be listed.

For this experiment, the target named is T1, endogenous Znf179 (mouse brain) (mouse (endogenous in mouse brain)) (UniProt Q96DY5).
T1 sequence: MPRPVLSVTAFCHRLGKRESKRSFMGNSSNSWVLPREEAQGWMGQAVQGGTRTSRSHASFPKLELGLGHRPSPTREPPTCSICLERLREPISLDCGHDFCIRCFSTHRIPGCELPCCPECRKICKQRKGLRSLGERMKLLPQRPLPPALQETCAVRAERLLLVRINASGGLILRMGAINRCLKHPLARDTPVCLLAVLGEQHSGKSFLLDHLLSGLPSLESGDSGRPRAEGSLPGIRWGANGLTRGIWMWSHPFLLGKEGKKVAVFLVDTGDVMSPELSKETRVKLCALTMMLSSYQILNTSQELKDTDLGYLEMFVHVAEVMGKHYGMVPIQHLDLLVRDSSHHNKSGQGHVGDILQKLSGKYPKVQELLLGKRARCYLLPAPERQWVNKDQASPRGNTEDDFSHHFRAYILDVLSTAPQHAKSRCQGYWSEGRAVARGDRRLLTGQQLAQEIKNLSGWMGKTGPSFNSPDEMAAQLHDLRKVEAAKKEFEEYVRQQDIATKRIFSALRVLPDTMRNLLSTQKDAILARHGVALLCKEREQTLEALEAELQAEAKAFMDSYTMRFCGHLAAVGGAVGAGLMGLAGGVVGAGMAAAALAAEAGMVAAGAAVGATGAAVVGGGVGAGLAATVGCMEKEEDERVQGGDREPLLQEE
The experiment in a line: affinity purification with mass spectrometry; whole brain lysates of wild-type and Znf179 knockout mice immunoprecipitated with anti-Znf179 antibody, SDS-PAGE, bands excised, in-gel trypsin digestion, LTQ Orbitrap XL, Mascot.

As to “endogenous TDP-43 (mouse brain) (from UniProt Q921F2 1-414)”, the binding entry is listed as “binds”.
